Measurements reported in PubChem BioAssay AID652243 (Drosophila RNAi Screening Center, 2013).
Aim: 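Fly regulators of androgen-dependent reporter output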 (primary screen). Cells: Drosophila S2R+ cells. Reagent: long dsRNA against Drosophila genes. Duration: 72 h (48 h, then 24 h hormone). Challenge: synthetic androgen R1881 at 10 nM for 24 h. Measured: 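Firefly light from an androgen-responsive reporter and Renilla control light per well, raw and unnormalised, for each of two replicates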. Reading the numbers: firefly reporter light: higher = more light from androgen-responsive reporter; Renilla control light: higher = more constitutive control signal (cell number, transfection). Active means: 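Hit when the log firefly-to-Renilla ratio dropped or increased by a fixed fold versus the mean of GFP or LacZ controls across duplicate plates; lowering cut given as 1.5 and as 3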. Calls: active = hit: reporter lowered or raised; inactive = no hit.
The deposit covers about 24,000 reagents; shown is an unselected part of those that have a named target and a result. In the full data, 246 (1%) are marked active. 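Plates not normalised; calls are printed but the firefly/Renilla ratio behind them is not deposited; fold cut for lowering reported inconsistently.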 Raw values are not corrected between plates. Reagents against one gene are numbered here. Names joined by + are all predicted targets of the reagent. Not stated in the record: the amount of reagent.

Gene | reagent | firefly reporter light, replicate 1 | firefly reporter light, replicate 2 | Renilla control light, replicate 1 | Renilla control light, replicate 2 | Outcome
CG4133 | 1 | 5.95e5 | 7.46e5 | 1.48e6 | 1.51e6 | inactive
Cpr57A + Obp57d | 1 | 1.30e6 | 1.18e6 | 1.35e6 | 1.19e6 | inactive
Cpr57A + Obp57d | 2 | 6.56e5 | 8.55e5 | 1.67e6 | 1.34e6 | inactive
Tsp42En | 1 | 4.20e5 | 3.50e5 | 2.69e6 | 2.76e6 | inactive
Gr22a | 1 | 6.82e5 | 7.18e5 | 2.49e6 | 1.85e6 | inactive
Gr22a | 2 | 3.92e5 | 2.94e5 | 6.66e5 | 5.53e5 | inactive
Reg-2 | 1 | 8.66e5 | 1.15e6 | 9.81e5 | 1.21e6 | inactive
Reg-2 | 2 | 5.47e5 | 7.95e5 | 8.91e5 | 8.34e5 | inactive
CG7101 | 1 | 1.26e5 | 1.40e5 | 1.54e6 | 1.38e6 | inactive
CG7101 | 2 | 7.82e5 | 1.17e6 | 1.13e6 | 1.45e6 | inactive
Ir94e | 1 | 3.82e5 | 6.56e5 | 2.55e6 | 3.72e6 | inactive
Send1 | 1 | 83681 | 69432 | 5.36e5 | 6.49e5 | inactive
Send1 | 2 | 2.87e5 | 3.37e5 | 5.67e5 | 5.82e5 | inactive
bves | 1 | 1.41e5 | 1.75e5 | 5.11e5 | 3.15e5 | inactive
bves | 2 | 2.29e5 | 2.21e5 | 7.12e5 | 4.39e5 | inactive
CG4733 | 1 | 1.99e5 | 2.13e5 | 2.07e6 | 2.43e6 | inactive
CG4733 | 2 | – | – | – | – | inactive
CG4733 | 3 | – | – | – | – | inactive
CG11151 | 1 | 4.63e5 | 5.51e5 | 3.95e6 | 3.81e6 | inactive
Cftr | 1 | 73174 | 1.03e5 | 5.27e5 | 6.61e5 | inactive
Cftr | 2 | 6.88e5 | 8.13e5 | 7.39e5 | 9.08e5 | inactive
CG46491 | 1 | 6.78e5 | 5.13e5 | 5.28e5 | 3.94e5 | inactive
CG46491 | 2 | 69474 | 1.07e5 | 1.38e6 | 1.38e6 | inactive
SP1029 | 1 | 1.76e5 | 1.67e5 | 1.92e6 | 2.53e6 | inactive
SP1029 | 2 | 3.57e5 | 2.55e5 | 9.77e5 | 4.97e5 | inactive
CG1951 | 1 | 1.29e5 | 1.04e5 | 8.86e5 | 6.73e5 | inactive
CG1951 | 2 | – | – | – | – | inactive
CG1951 | 3 | – | – | – | – | inactive
Tdh | 1 | 45076 | 51296 | 2.67e5 | 2.70e5 | inactive
Blm | 1 | 1.20e5 | 42053 | 6.52e5 | 2.67e5 | inactive
CG42322 | 1 | 92933 | 85105 | 5.86e5 | 9.50e5 | inactive
CG42322 | 2 | 2.48e5 | 3.11e5 | 3.14e6 | 3.14e6 | inactive
CG42322 | 3 | 7.95e5 | 7.27e5 | 9.11e5 | 8.49e5 | inactive
Pc | 1 | 5.25e5 | 3.53e5 | 4.59e5 | 4.10e5 | inactive
Cypl | 1 | 1.14e5 | 1.22e5 | 1.43e6 | 1.77e6 | inactive
Cypl | 2 | 5.96e5 | 6.52e5 | 5.62e5 | 5.43e5 | inactive
Spt3 | 1 | 1.16e5 | 1.02e5 | 1.81e6 | 1.32e6 | inactive
Spt3 | 2 | 2.88e5 | 2.31e5 | 7.11e5 | 5.19e5 | inactive
Obp19a | 1 | 1.83e5 | 1.35e5 | 6.77e5 | 2.88e5 | inactive
Ir94c | 1 | 99545 | 1.42e5 | 1.65e5 | 2.08e5 | inactive
Hpr1 | 1 | 21470 | 48863 | 2.40e5 | 4.60e5 | inactive
CG11788 | 1 | 67845 | 52326 | 1.04e6 | 9.78e5 | inactive
NimB3 | 1 | 1.27e6 | 1.22e6 | 1.69e6 | 1.80e6 | inactive
crm | 1 | 6.05e5 | 5.71e5 | 2.01e6 | 1.57e6 | inactive
crm | 2 | 3.28e5 | 2.58e5 | 3.88e5 | 4.38e5 | inactive
crm | 3 | 6.50e5 | 7.51e5 | 1.18e6 | 8.86e5 | inactive
CG13843 | 1 | 2.31e5 | 2.41e5 | 2.74e6 | 2.24e6 | inactive
CG14851 | 1 | 1.45e5 | 1.98e5 | 2.00e6 | 1.88e6 | inactive
CG14851 | 2 | 9.30e5 | 8.28e5 | 1.31e6 | 1.94e6 | inactive
CG14851 | 3 | 3.88e5 | 4.96e5 | 3.93e5 | 7.63e5 | inactive
CG15894 | 1 | 1.31e5 | 1.53e5 | 1.61e6 | 1.77e6 | inactive
p38b | 1 | 2.28e5 | 3.28e5 | 1.77e6 | 2.53e6 | inactive
p38b | 2 | – | – | – | – | inactive
Vmat + CG13330 | 1 | 1.34e6 | 1.33e6 | 2.51e6 | 2.68e6 | inactive
Vmat + CG13330 | 2 | 4.34e5 | 3.81e5 | 1.66e6 | 1.49e6 | inactive
CG7220 | 1 | 1.70e5 | 2.36e5 | 3.79e5 | 5.87e5 | inactive
CG7220 | 2 | 3.15e5 | 3.23e5 | 1.82e6 | 2.25e6 | inactive
CG7220 | 3 | 3.00e5 | 2.68e5 | 7.74e5 | 6.30e5 | inactive
CG30259 | 1 | 3.67e5 | 3.68e5 | 2.34e6 | 1.96e6 | inactive
CG30259 | 2 | 3.29e5 | 3.98e5 | 2.12e6 | 2.53e6 | inactive
dup | 1 | 1.40e5 | 1.21e5 | 8.22e5 | 8.22e5 | inactive
Ugt36A1 | 1 | 1.19e5 | 92159 | 1.04e6 | 8.90e5 | inactive
Ugt36A1 | 2 | 4.77e5 | 4.33e5 | 1.40e6 | 1.26e6 | inactive
Pop1 | 1 | 93441 | 1.21e5 | 5.67e5 | 6.51e5 | inactive
CG5721 | 1 | 1.21e6 | 7.22e5 | 2.60e6 | 1.56e6 | inactive
CG12590 | 1 | 44611 | 90883 | 1.38e6 | 1.49e6 | inactive
tho2 | 1 | 6.75e5 | 1.06e6 | 1.50e6 | 1.84e6 | inactive
tho2 | 2 | 3.04e5 | 2.85e5 | 8.97e5 | 8.70e5 | inactive
Fancm | 1 | 83875 | 69246 | 7.02e5 | 6.72e5 | inactive
CG17660 | 1 | 7.58e5 | 1.26e6 | 1.50e6 | 1.78e6 | inactive
su(sable) | 1 | 1.22e5 | 1.51e5 | 3.19e6 | 3.28e6 | inactive
CG1943 | 1 | 80967 | 68182 | 1.53e6 | 1.55e6 | inactive
CG42568 + DnaJ-60 | 1 | 2.02e5 | 2.28e5 | 1.46e6 | 1.65e6 | inactive
CG42568 + DnaJ-60 | 2 | 6.99e5 | 5.09e5 | 1.11e6 | 1.11e6 | inactive
CG42568 + DnaJ-60 | 3 | 3.58e5 | 4.27e5 | 7.39e5 | 7.22e5 | inactive

4 entries already listed, sorted by “firefly reporter light, replicate 2”, low to high:
Gene | reagent | firefly reporter light, replicate 1 | firefly reporter light, replicate 2 | Renilla control light, replicate 1 | Renilla control light, replicate 2 | Outcome
CG42322 | 1 | 92933 | 85105 | 5.86e5 | 9.50e5 | inactive
CG42322 | 2 | 2.48e5 | 3.11e5 | 3.14e6 | 3.14e6 | inactive
Pc | 1 | 5.25e5 | 3.53e5 | 4.59e5 | 4.10e5 | inactive
CG42322 | 3 | 7.95e5 | 7.27e5 | 9.11e5 | 8.49e5 | inactive
